Results: article PMC7379993
No constants are given. Whether binding was seen depends on the method and setting. Binding seen in cells or lysates may run through a third protein. Where a sequence is shown, tags or fusion partners need not be part of it.

Target: Flag-tagged mutant KRAS G12D (human) (UniProt P01116)
Assay: co-IP; PANC-1 cells co-transfected with Flag-tagged mutant KRAS and Myc-tagged RC, ODC or RC-ODC; 1-1.5 mg lysate protein with anti-Flag antibody 4 h at 4 °C, then protein A/G-Sepharose 2 h at 4 °C; blot

binding: no binding
B1: ornithine decarboxylase with the Myc tag (protein, UniProt P11926 1-461)
chain: MNNFGNEEFDCHFLDEGFTAKDILDQKINEVSSSDDKDAFYVADLGDILKKHLRWLKALPRVTPFYAVKCNDSKAIVKTLAATGTGFDCASKTEIQLVQSLGVPPERIIYANPCKQVSQIKYAANNGVQMMTFDSEVELMKVARAHPKAKLVLRIATDDSKAVCRLSVKFGATLRTSRLLLERAKELNIDVVGVSFHVGSGCTDPETFVQAISDARCVFDMGAEVGFSMYLLDIGGGFPGSEDVKLKFEEITGVINPALDKYFPSDSGVRIIAEPGRYYVASAFTLAVNIIAKKIVLKEQTGSDDEDESSEQTFMYYVNDGVYGSFNCILYDHAHVKPLLQKRPKPDEKYYSSSIWGPTCDGLDRIVERCDLPEMHVGDWMLFENMGAYTVAAASTFNGFQRPTIYYVMSGPAWQLMQQFQNPDFPPEVEEQDASTLPVSCAWESGMKRHRAACASASINV
